Here are results for one molecule from patent US20160230205A1 (R P SCHERER TECHNOLOGIES, published 2016).

Results are given in words; binding and its absence hold for the method and conditions named. Some binding calls cover weakened binding; strength is not graded here. Sequences can lack the tags named with a protein.

Assay [1] has as its target T1, 14 amino acid FGE substrate peptide ….
T1 sequence (peptide): ALCTPSRGSLFTGR
Put plainly: Michaelis-Menten kinetics from discontinuous RP-HPLC activity assay.

Assay [2] shares this target. Put plainly: RP-HPLC and LC-MS monitoring of substrate disulfide side products during turnover.

B1: Catalytic core of H. sapiens formylglycine-generating enzyme with TEV protease site and C-terminal His6 tag (Hs-cFGE) (enzyme)
chain: DRSLEANAPGPVPGERQLAHSKMVPIPAGVFTMGTDDPQIKQDGEAPARRVTIDAFYMDAYEVSNTEFEKFVNSTGYLTEVAAAPWWLPVKGANWRHPEGPDSTILHRPDHPVLHVSWNDAVAYCTWAGKRLPTEAEWEYSCRGGLHNRLFPWGNKLQPKGQHYANIWQGEFPVTNTGEDGFQGTAPVDAFPPNGYGLYNIVGNAWEWTSDWWTVHHSVEETLNPKGPPSGKDRVKKGGSYMCHRSYCYRYRCAARSQNTPDSSASNLGFRCAADRLPTMDKGENLYFQGHHHHHH
As to B1, the binding result in assay [1] and in assay [2] was “binds” in each case.
